From paper doi:10.1101/2020.05.07.082081
Where two headings read alike, the source gives them in different places. Results are given in words; binding and its absence hold for the method and conditions named. In cells and extracts the contact can be indirect. Some entries that bind do so weakly or less than the wild type.

Protein sequences, listed by entry. Tags and fused reporters are not part of them.
UniProt Q62420: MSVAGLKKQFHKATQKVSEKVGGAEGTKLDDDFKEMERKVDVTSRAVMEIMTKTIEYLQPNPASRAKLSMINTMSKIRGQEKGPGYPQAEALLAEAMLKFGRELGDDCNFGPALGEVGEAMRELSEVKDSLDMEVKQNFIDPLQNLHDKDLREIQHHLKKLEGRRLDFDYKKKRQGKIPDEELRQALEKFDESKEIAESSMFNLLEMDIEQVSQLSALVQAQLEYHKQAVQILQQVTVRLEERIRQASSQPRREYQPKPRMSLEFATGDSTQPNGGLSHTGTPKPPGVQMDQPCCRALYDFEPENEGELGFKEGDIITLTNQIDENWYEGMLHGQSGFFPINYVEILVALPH
UniProt Q60598: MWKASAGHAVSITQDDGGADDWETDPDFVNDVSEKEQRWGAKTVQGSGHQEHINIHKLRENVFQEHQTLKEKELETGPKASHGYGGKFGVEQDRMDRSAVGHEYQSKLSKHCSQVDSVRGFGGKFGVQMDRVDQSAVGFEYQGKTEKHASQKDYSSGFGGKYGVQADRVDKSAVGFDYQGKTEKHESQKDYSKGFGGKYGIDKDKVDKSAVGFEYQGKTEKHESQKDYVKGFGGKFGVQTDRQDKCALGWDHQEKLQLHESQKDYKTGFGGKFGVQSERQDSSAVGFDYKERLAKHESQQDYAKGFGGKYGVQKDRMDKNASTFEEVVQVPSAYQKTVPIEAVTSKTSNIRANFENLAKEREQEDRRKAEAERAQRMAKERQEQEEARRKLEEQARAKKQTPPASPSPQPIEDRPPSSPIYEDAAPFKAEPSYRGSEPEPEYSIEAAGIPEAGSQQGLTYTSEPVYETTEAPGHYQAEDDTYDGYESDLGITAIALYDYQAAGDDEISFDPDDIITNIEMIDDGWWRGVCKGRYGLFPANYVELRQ

Assays:
Experiment in all cases: co-IP
[1] = biological target: endophilin A1 (endogenous) (mouse (endogenous in cultured mouse neurons)) (UniProt Q62420)
[2] = biological target: Flag-endophilin A1 (UniProt Q62420)
[3] = biological target: endophilin A1 (endogenous) (mouse (endogenous in cultured mouse neurons)) (UniProt Q62420); remark: listed apart in the source

For “cortactin (endogenous) (from UniProt Q60598 1-546)”, the binding [1] was “binds”.

B1: p140Cap (protein, UniProt Q9QWI6 1-1250)
chain: MQPWQCLRRFALAWWERTAEGRARSPREEVGPRDPGGRGEPDPERSSPPMLSADDAEYPREYRTLGGGGGGGSGGRRFSNVGLVHTSERRHTVIAAQSLEALSGLQKADADRKRDAFMDHLKSKYPQHALALRGQQDRMREQVGGWTVDPVCLLSSLCSHLHGDSTPSGAGQPAQQPNYWSFKTRSSRHTQGAQPGLADQAAKLSYASAESLETMSEAELPLGFSRMNRFRQSLPLSRSASQTKLRSPGVLFLQFGEETRRVHITHEVSSLDTLHALIAHMFPQKLTMGMLKSPNTAILIKDEARNVFYELEDVRDIQDRSIIKIYRKEPLYAAFPGSHLTNGDLRREMVYASRESSPTRRLNNLSPASHLASSSPPPGLPSGLPSGLPSGSPSRSRLSYAGGRPPSYAGSPVHHAAERLGGAPTGQGVSPSPSAILERRDVKPDEDLAGKAGGMVLVKGEGLYADPYGLLHEGRLSLAAAAETHSHTRARAACTSGVPCALSAPTPLPRCSPTWRTRCTRRALAALYGDGYGFRLPPSSPQKLADVSAPSGGPPPPHSPYSGPPSRGSPVRQSFRKDSGSSSVFAESPGGKARSTGSASTAGAPPSELFPGPGERSLVGFGPPVPAKDTETRERMEAMEKQIASLTGLVQSALLRGSEPETPSEKVEGSNGAATPSAPVCGSGSKSSGATPVSGPPPPSASSTPAGQPTAVSRLQMQLHLRGLQNSASDLRGQLQQLRNVQLQNQESVRALLKPTEADVSMRVSEAARRQEDPLQRQRTLVEEERLRYLNDEELITQQLNDLEKSVEKIQRDVAHNHRLMPGPELEEKALVLKQLGETLTELKAHFPGLQSKMRVVLRVEVEAVKFLKEEPQRLDGLLKRCRGVTDTLAQIRRQVDEGMWPPPNNLLNQSPKKVAAETDFSKGLDFEIPPPSPPLNLHELSGPAEGTPLTPKSTNPTKCLDASSKRNTDKAVSVEAAERDWEEKRAALTQYSAKDINRLLEETQAELLKAIPDLDCASKTHPGPAPTPDHKPPKAPHGQKAAPRTEPSGRRGSDELTVPRYRTEKPSKSPPPPPPRRSFPSSHGLTTTRTGEVVVTSKKDSVFIKKAESEELEVQKPQVKLRRAVSEVVRPASTPPIMASAIKDEDDEERIIAELESGGSSVPPMKVVTPGASRLKAAQGPAGSPDKGKHGKQRTEYMRIQAQQQATKPSKEVSGPNETSSPGSEKPSGSRTSIPVLTSFGARNSSISF
With B1 the binding [2] was “binds”.

B2: p140Cap (endogenous) (protein, UniProt Q9QWI6 1-1250)
chain: MQPWQCLRRFALAWWERTAEGRARSPREEVGPRDPGGRGEPDPERSSPPMLSADDAEYPREYRTLGGGGGGGSGGRRFSNVGLVHTSERRHTVIAAQSLEALSGLQKADADRKRDAFMDHLKSKYPQHALALRGQQDRMREQVGGWTVDPVCLLSSLCSHLHGDSTPSGAGQPAQQPNYWSFKTRSSRHTQGAQPGLADQAAKLSYASAESLETMSEAELPLGFSRMNRFRQSLPLSRSASQTKLRSPGVLFLQFGEETRRVHITHEVSSLDTLHALIAHMFPQKLTMGMLKSPNTAILIKDEARNVFYELEDVRDIQDRSIIKIYRKEPLYAAFPGSHLTNGDLRREMVYASRESSPTRRLNNLSPASHLASSSPPPGLPSGLPSGLPSGSPSRSRLSYAGGRPPSYAGSPVHHAAERLGGAPTGQGVSPSPSAILERRDVKPDEDLAGKAGGMVLVKGEGLYADPYGLLHEGRLSLAAAAETHSHTRARAACTSGVPCALSAPTPLPRCSPTWRTRCTRRALAALYGDGYGFRLPPSSPQKLADVSAPSGGPPPPHSPYSGPPSRGSPVRQSFRKDSGSSSVFAESPGGKARSTGSASTAGAPPSELFPGPGERSLVGFGPPVPAKDTETRERMEAMEKQIASLTGLVQSALLRGSEPETPSEKVEGSNGAATPSAPVCGSGSKSSGATPVSGPPPPSASSTPAGQPTAVSRLQMQLHLRGLQNSASDLRGQLQQLRNVQLQNQESVRALLKPTEADVSMRVSEAARRQEDPLQRQRTLVEEERLRYLNDEELITQQLNDLEKSVEKIQRDVAHNHRLMPGPELEEKALVLKQLGETLTELKAHFPGLQSKMRVVLRVEVEAVKFLKEEPQRLDGLLKRCRGVTDTLAQIRRQVDEGMWPPPNNLLNQSPKKVAAETDFSKGLDFEIPPPSPPLNLHELSGPAEGTPLTPKSTNPTKCLDASSKRNTDKAVSVEAAERDWEEKRAALTQYSAKDINRLLEETQAELLKAIPDLDCASKTHPGPAPTPDHKPPKAPHGQKAAPRTEPSGRRGSDELTVPRYRTEKPSKSPPPPPPRRSFPSSHGLTTTRTGEVVVTSKKDSVFIKKAESEELEVQKPQVKLRRAVSEVVRPASTPPIMASAIKDEDDEERIIAELESGGSSVPPMKVVTPGASRLKAAQGPAGSPDKGKHGKQRTEYMRIQAQQQATKPSKEVSGPNETSSPGSEKPSGSRTSIPVLTSFGARNSSISF
B2 was tested, and the binding [3] was “binds”.
